Data: PubChem BioAssay AID540256 (National Center for Advancing Translational Sciences (NCATS), 2011)
The campaign covered roughly 300,000 compounds. About 3,700 (1.2%) were called active. The inconclusive results got no clear call from the source; some entries with a clear call stand among them for comparison. Calls come from the whole dose curve; tested in HEK293 cells. A potency beside an inconclusive call is a rough fit, not a confirmed value.
Potency is the fitted concentration of half-maximal effect.

Assay: qHTS for Inhibitors of binding or entry into cells for Lassa Virus; note: nearly all actives have a fitted effect of over 50% in size
Details: Lassa virus pseudotype entry inhibition, cell reporter; series mostly up to 37.9 µM
For Cc1ccc(CNC(=O)COC(=O)c2cc3c(s2)CCC(C)C3)cc1 (centres undefined), the Potency was active: 7.94 µM. In the case of CCCCNc1oc(-c2cccs2)nc1S(=O)(=O)c1ccccc1, the Potency is reported as inconclusive: 18.3 µM [inhibitor, partial curve, poor fit]. In the case of CCc1noc(C)c1C(=O)N1CCN(c2cccc(C)c2C)CC1, the Potency is reported as inconclusive: 11.2 µM [inhibitor, single point]. In the case of Cc1c(C(=O)N2CCN(c3ccc([N+](=O)[O-])cc3)CC2)sc2ncn(CC(=O)N3CCOCC3)c(=O)c12, the Potency is reported as “inactive”. For CC1CCN(c2oc(-c3ccc(COc4ccccc4)o3)nc2C#N)CC1, the Potency was inconclusive: 7.94 µM [inhibitor, partial curve, poor fit]. In the case of COc1cc(OC)cc(C(=O)N[C@H](C(=O)NC23CC4CC(CC(C4)C2)C3)C(C)C)c1, the Potency is reported as “inactive”. In the case of CC(C)C(=O)Nc1ccc2c3c(cccc13)CC2, the Potency is reported as inconclusive: 1.26 µM [activator, single point]. With COc1cccc(NC(=O)CSC2=C(C#N)C(c3ccco3)C3=C(CCCC3=O)N2)c1 (centres undefined) the Potency was active: 12.6 µM. For Cc1ccc(NC(=O)CCN2CCC(Cc3ccccc3)CC2)cc1, the Potency was inconclusive: 11.2 µM [inhibitor, partial curve, poor fit]. For CN(C)C(=O)CSc1nc(-c2cccs2)c(-c2cccs2)[nH]1, the Potency was “inactive”. In the case of c1ccc(N=P(N2CCOCC2)(N2CCOCC2)N2CCOCC2)cc1, the Potency is reported as “inactive”. For COc1ccc(Cl)cc1NC(=O)C/C(C)=N/NC(=O)C(=O)NCc1ccccc1, the Potency was inconclusive: 1.26 µM [inhibitor, single point]. For Cc1cccc(-c2nc3nc(C)cc(NCc4ccccc4Cl)n3n2)c1, the Potency was “inactive”. In the case of COC(=O)c1sc(NC(=O)COc2cccc3ccccc23)nc1C, the Potency is reported as inconclusive: 32.6 µM [inhibitor, single point]. With COc1ccccc1CC1S/C(=N/N=C/c2ccco2)NC1=O (centres undefined) the Potency was inconclusive: 35.5 µM [inhibitor, partial curve, poor fit]. In the case of Cc1cccc(Cn2c(=O)n(Cc3ccccc3)c(=O)c3oc4ccccc4c32)c1, the Potency is reported as “inactive”. With Cc1ccc(Cn2ccc(-c3cnc(-c4ccccc4)s3)n2)cc1 the Potency was inconclusive: 35.5 µM [inhibitor, single point]. With Cc1ccc(Sc2ccc(N3CCC(C(=O)Nc4ccc(C)c(F)c4)CC3)nn2)cc1 the Potency was “inactive”. For CCc1ccc(OCC(=O)N/N=C/c2cc([N+](=O)[O-])ccc2N2CCCCCC2)cc1, the Potency was inconclusive: 28.2 µM [inhibitor, single point]. In the case of O=c1[nH]c(=O)n([C@H]2C[C@H](O)[C@@H](CO)O2)cc1C(F)(F)F, the Potency is reported as inconclusive: 8.2 µM [inhibitor, partial curve]. With Cc1ccc(OCCn2c(=O)oc3ccc(C)cc32)cc1 the Potency was “inactive”. In the case of COc1ccccc1Cn1nnc2c(=O)[nH]c(C3CCN(C(=O)c4ccccc4Cl)CC3)nc21, the Potency is reported as inconclusive: 15.8 µM [inhibitor, partial curve, poor fit]. With CN(C)C(=S)SCC(=O)NC(=O)NC(C)(C)C the Potency was inconclusive: 3.55 µM [inhibitor, single point]. With CCn1c(COc2ccc(C)cc2)nc2ccccc21 the Potency was inconclusive: 35.5 µM [activator, single point]. With COC(=O)CCNC(=O)c1ccc2nc(Cc3ccc(OC)cc3)oc2c1 the Potency was “inactive”. For COc1ccc(NC(=O)Nc2ccc3oc(C)nc3c2)cc1, the Potency was “inactive”. For CN1CCN(CCC(=O)Nc2cccc(F)c2)CC1, the Potency was inconclusive: 2.59 µM [activator, partial curve, poor fit]. With COCCn1c(SCc2ccc(C(=O)OC)o2)nc2ccccc2c1=O the Potency was “inactive”. In the case of CS(=O)(=O)N(CC(=O)NC1CC2CCC1C2)c1cccc(C(F)(F)F)c1 (centres undefined), the Potency is reported as “inactive”. With CC(=O)c1ccc(NC(=O)c2nc(-c3ccccc3)n(-c3ccc(Cl)cc3)n2)cc1 the Potency was “inactive”. In the case of CN(C)c1ccc(C=c2c3ccccc3n3c2cc(-c2ccccc2)[n+]3C)cc1, the Potency is reported as active: 2.82 µM. For CN(C(=O)c1cccc(COc2ccc(Cl)cc2Cl)c1)c1ccccc1, the Potency was inconclusive: 29.1 µM [inhibitor, single point]. For CCOC(=O)N1CCN(C(=O)C2CCN(S(=O)(=O)c3cc(Cl)ccc3Cl)CC2)CC1, the Potency was “inactive”. For O=C(NCCCOC(=O)c1ccccc1)c1ccccc1, the Potency was “inactive”. In the case of CC(=O)N1CCc2cc(Br)cc(S(=O)(=O)N3CCC(C)CC3)c21, the Potency is reported as “inactive”. For Cc1ccc(-c2nc3nc(C)cc(C)n3c2Nc2ccc3c(c2)OCCO3)cc1, the Potency was “inactive”. For COc1ccc(CNC(=O)c2ccc(-c3ccccc3)cc2)cc1, the Potency was inconclusive: 20 µM [inhibitor, single point]. For Cc1c(C(=O)Nc2cccc(Cl)c2)c2ccccn2c1CCc1ccncc1, the Potency was inconclusive: 31.6 µM [inhibitor, single point]. For CCCOC(=O)CSC1=C(C#N)C(c2ccc3c(c2)OCO3)CC(=O)N1 (centres undefined), the Potency was inconclusive: 10 µM [inhibitor, partial curve, poor fit]. In the case of CCC(C(=O)OCC(=O)c1ccc2c(c1)NC(=O)CO2)c1ccccc1 (centres undefined), the Potency is reported as inconclusive: 35.5 µM [inhibitor, single point]. For C/C(=N\NC(=O)c1ccc(C)cc1C)c1ccc2c(c1)Nc1ccccc1S2, the Potency was inconclusive: 2.82 µM [inhibitor, full curve, poor fit]. For CCn1ccnc1CN1CCN(CC(C)C)C(CCO)C1 (centres undefined), the Potency was inconclusive: 35.5 µM [activator, single point]. With CC1CCc2c(C(=O)NCc3ccccn3)csc2C1 (centres undefined) the Potency was inconclusive: 1.26 µM [activator, partial curve, poor fit]. For COc1ccc(C(=O)NCCCc2ccccc2)cc1OC, the Potency was inconclusive: 11.2 µM [activator, partial curve, poor fit]. With Cc1[nH]c2ccccc2c1CN1CCC(Cc2ccccc2)CC1 the Potency was inconclusive: 28.2 µM [inhibitor, single point]. With O=C(Nc1nc2c(Br)cc(Br)cc2c(=O)s1)c1ccco1 the Potency was “inactive”. In the case of CCOc1cccc2sc(N(CCCN(C)C)C(=O)c3ccc(S(=O)(=O)N4CCCCCC4)cc3)nc12, the Potency is reported as inconclusive: 15.8 µM [inhibitor, single point]. With CC(C)(C)OC(=O)N1CCC(c2c(C(=O)NC3CC3)cnn2-c2ccc(Cl)cc2)CC1 the Potency was inconclusive: 15.8 µM [inhibitor, partial curve, poor fit]. For C[C@H]1[C@H](c2ccccc2)Oc2cc(Br)ccc2S(=O)(=O)N1Cc1cccc(Cl)c1, the Potency was inconclusive: 0.887 µM [activator, full curve, poor fit]. For O=C(CSC1=Nc2ccccc2C2=NC(Cc3ccccc3)C(=O)N12)Nc1ccccc1C(F)(F)F (centres undefined), the Potency was “inactive”. In the case of CCc1ccc(-c2nc(-c3ccncc3)no2)cc1, the Potency is reported as inconclusive: 22.4 µM [inhibitor, single point]. With CCN1CCN(C2=C(Cl)C(=O)N(Cc3ccccc3)C2=O)CC1 the Potency was inconclusive: 11.2 µM [inhibitor, partial curve, poor fit]. For CSc1ccc(COC(=O)c2cc([N+](=O)[O-])ccc2N2CCOCC2)cc1, the Potency was inconclusive: 0.282 µM [inhibitor, full curve]. For Cc1ccc(-c2noc(-c3ccccc3F)n2)cc1, the Potency was inconclusive: 11.2 µM [inhibitor, single point]. For O=S(=O)(c1ccccc1)N1N=C(c2ccc(Cl)cc2)CC1c1ccco1 (centres undefined), the Potency was inconclusive: 31.6 µM [inhibitor, single point]. In the case of COc1cccc(CN(C)C(=O)CC2C(=O)NCCN2C2Cc3ccccc3C2)c1 (centres undefined), the Potency is reported as “inactive”. In the case of N#Cc1ccc(OCC(O)CN2CCC(C(O)(c3ccccc3)c3ccccc3)CC2)cc1 (centres undefined), the Potency is reported as inconclusive: 20 µM [inhibitor, partial curve, poor fit]. For Cc1cc(C(=O)CCl)c(C)n1CC1COc2ccccc2O1 (centres undefined), the Potency was “inactive”. With Cc1ccc(N/C=C2\CCCCC2=O)c(C)c1 the Potency was “inactive”. In the case of N#CCCN(C(=S)NC(=O)c1cccs1)c1ccccc1F, the Potency is reported as inconclusive: 1.41 µM [activator, partial curve, poor fit]. In the case of CCCCC1(Cc2ccc(OC)c([N+](=O)[O-])c2)C(=O)N(c2ccccc2)N(c2ccccc2)C1=O, the Potency is reported as inconclusive: 31.6 µM [inhibitor, single point]. For CC(C)CC1C(=O)N(Cc2cn(CC3CCCCC3)nn2)CCS(=O)(=O)N1Cc1ccc(-c2cccc(CO)c2)cc1 (centres undefined), the Potency was inconclusive: 0.995 µM [inhibitor, full curve, poor fit]. In the case of COc1ccc(CNC(=O)c2cc3cc(S(=O)(=O)N4CCCCC4)ccc3n2C)c(OC)c1, the Potency is reported as inconclusive: 35.5 µM [inhibitor, single point]. For COC(=O)c1ccc(OC)c(CSc2nnc(-c3ccc(C)cc3)o2)c1, the Potency was inconclusive: 5.01 µM [activator, partial curve]. For CC1CCc2c(sc(NC(=O)c3ccc(Cl)cc3Cl)c2C#N)C1 (centres undefined), the Potency was “inactive”. With COc1ccc(S(=O)(=O)N2CCN(C(C)C(=O)Nc3ccc(C(C)C)cc3)CC2)cc1 (centres undefined) the Potency was inconclusive: 12.6 µM [inhibitor, single point]. For CCOC(=O)N1CCc2c(sc(NCc3ccc(N(C)C)cc3)c2C(=O)Nc2ccc(OC)cc2)C1, the Potency was inconclusive: 5.62 µM [inhibitor, full curve, poor fit]. In the case of CCOc1cc(CNC(=O)c2ccc3c(c2)N(C)C(=O)C2CCCCN32)cc(OCC)c1OCC (centres undefined), the Potency is reported as “inactive”. For O=C(Nc1ccc(F)cc1F)c1cc2c(=O)n3ccccc3nc2s1, the Potency was “inactive”.
